Experiment [1] deals with T1, Nog1-TAP (S. cerevisiae) (UniProt Q02892).
T1 sequence: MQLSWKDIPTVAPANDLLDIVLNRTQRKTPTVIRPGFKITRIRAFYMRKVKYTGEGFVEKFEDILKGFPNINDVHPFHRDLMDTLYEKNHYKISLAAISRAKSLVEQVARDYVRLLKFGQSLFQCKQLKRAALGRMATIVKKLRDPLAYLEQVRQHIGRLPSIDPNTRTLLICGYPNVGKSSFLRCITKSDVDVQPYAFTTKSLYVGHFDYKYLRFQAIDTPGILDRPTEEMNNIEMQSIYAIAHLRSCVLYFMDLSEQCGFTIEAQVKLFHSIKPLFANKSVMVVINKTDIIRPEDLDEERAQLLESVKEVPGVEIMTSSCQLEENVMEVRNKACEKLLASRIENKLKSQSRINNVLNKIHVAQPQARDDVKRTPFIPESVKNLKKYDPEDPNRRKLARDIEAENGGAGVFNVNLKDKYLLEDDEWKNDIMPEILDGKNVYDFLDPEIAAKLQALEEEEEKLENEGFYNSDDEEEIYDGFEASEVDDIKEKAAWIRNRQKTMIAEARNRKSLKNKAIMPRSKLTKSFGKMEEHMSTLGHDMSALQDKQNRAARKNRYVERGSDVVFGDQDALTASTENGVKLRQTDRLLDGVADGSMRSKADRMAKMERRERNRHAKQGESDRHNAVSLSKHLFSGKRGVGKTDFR
Nature of the experiment: affinity purification with mass spectrometry; TAP-tagged LSU biogenesis factor and associated pre-ribosomal particles purified in one step from total yeast cellular extract on rabbit IgG coupled magnetic beads, 1 h at 4°C, MB buffer (20 mM Tris HCl pH 8, 200 or 300 mM KCl, 5 mM MgOAc) with 0.5% Triton X-100 and 0.1% Tween 20; eluates compared pair wise by semi-quantitative LC-MS/MS with iTRAQ reagents; for Nog1-, Nog2- and Rsa4-TAP wild type against strains in which RPL25, RPL2, RPL43 or RPL21 was shut down for 4 h in glucose.

Chains of the proteins cited; added tags and fusions are not shown. Lines headed by an entry give the natural chain unless they say otherwise; changes in a name come on top.
UniProt P39938: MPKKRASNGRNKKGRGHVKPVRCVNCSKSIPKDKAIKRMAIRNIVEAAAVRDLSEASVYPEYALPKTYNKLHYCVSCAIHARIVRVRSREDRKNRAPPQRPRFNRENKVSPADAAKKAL
UniProt P53742: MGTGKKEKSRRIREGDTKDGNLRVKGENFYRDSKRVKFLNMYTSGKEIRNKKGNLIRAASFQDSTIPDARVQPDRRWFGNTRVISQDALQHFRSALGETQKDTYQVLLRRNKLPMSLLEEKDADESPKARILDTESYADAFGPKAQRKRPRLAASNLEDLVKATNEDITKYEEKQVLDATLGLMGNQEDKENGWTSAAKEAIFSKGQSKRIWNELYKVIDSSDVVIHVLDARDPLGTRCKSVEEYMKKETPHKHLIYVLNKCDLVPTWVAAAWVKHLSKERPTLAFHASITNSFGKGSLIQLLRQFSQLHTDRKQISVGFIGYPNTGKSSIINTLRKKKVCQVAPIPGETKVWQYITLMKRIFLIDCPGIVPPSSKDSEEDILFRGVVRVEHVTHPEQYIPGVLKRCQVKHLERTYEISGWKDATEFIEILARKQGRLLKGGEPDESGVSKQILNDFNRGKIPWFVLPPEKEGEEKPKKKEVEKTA
UniProt P04449: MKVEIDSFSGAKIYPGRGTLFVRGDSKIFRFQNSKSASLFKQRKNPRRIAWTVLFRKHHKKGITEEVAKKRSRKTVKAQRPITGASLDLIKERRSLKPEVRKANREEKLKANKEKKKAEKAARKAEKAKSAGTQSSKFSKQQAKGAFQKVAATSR

Another experiment concerns the target T2, Rsa4-TAP (S. cerevisiae) (UniProt P25382).
T2 sequence: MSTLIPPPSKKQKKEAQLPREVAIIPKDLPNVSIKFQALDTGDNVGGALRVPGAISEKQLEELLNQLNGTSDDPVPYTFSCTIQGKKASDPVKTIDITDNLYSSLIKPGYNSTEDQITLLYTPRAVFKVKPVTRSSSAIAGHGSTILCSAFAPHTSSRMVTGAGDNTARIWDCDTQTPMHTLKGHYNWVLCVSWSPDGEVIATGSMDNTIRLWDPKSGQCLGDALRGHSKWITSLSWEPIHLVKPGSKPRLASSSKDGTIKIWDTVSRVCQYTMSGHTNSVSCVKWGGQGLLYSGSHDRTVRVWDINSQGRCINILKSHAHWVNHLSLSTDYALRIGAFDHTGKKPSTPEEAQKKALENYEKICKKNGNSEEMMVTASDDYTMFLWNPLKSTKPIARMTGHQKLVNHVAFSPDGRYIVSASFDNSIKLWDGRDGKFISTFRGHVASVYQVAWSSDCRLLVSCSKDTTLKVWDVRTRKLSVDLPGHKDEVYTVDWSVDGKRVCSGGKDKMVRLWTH
The experiment is described as above.

The target of the next experiment is T3, Arx1-TAP (S. cerevisiae) (UniProt Q03862).
T3 sequence: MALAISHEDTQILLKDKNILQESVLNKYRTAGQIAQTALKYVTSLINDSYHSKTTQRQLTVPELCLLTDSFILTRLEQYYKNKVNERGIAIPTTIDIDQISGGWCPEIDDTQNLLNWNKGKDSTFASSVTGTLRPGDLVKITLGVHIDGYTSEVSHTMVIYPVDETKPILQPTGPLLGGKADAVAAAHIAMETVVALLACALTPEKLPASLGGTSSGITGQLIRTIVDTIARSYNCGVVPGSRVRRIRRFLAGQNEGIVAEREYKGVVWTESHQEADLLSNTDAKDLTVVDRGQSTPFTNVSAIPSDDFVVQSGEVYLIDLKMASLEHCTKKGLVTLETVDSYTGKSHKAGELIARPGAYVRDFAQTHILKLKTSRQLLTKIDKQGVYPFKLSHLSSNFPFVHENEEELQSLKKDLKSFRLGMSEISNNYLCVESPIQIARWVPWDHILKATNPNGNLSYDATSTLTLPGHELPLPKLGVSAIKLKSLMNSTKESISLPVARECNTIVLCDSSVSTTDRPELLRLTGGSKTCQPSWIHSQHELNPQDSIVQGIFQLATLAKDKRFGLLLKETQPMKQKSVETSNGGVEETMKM
The experiment is described as above.

Experiment [2] has as its target rpS26-FLAG (S. cerevisiae) (UniProt P39938). Nature of the experiment: affinity purification with mass spectrometry; rpS26-FLAG and associated 80S ribosomes purified in one step from total yeast cellular extract on anti-FLAG M2 sepharose beads, 1 h at 4°C, MB buffer with 0.5% Triton X-100 and 0.1% Tween; eluates compared pair wise with LSU precursor particles by semi-quantitative LC-MS/MS with iTRAQ reagents.

The next experiment deals with Nog2-TAP (S. cerevisiae) (UniProt P53742). Nature of the experiment: affinity purification with mass spectrometry; TAP-tagged LSU biogenesis factor and associated pre-ribosomal particles purified in one step from total yeast cellular extract on rabbit IgG coupled magnetic beads, 1 h at 4°C, MB buffer (20 mM Tris HCl pH 8, 200 or 300 mM KCl, 5 mM MgOAc) with 0.5% Triton X-100 and 0.1% Tween 20; eluates compared pair wise by semi-quantitative LC-MS/MS with iTRAQ reagents; for Nog1-, Nog2- and Rsa4-TAP wild type against strains in which RPL25, RPL2, RPL43 or RPL21 was shut down for 4 h in glucose.

The target of a further experiment is T4, Noc2-TAP (S. cerevisiae) (UniProt P39744).
T4 sequence: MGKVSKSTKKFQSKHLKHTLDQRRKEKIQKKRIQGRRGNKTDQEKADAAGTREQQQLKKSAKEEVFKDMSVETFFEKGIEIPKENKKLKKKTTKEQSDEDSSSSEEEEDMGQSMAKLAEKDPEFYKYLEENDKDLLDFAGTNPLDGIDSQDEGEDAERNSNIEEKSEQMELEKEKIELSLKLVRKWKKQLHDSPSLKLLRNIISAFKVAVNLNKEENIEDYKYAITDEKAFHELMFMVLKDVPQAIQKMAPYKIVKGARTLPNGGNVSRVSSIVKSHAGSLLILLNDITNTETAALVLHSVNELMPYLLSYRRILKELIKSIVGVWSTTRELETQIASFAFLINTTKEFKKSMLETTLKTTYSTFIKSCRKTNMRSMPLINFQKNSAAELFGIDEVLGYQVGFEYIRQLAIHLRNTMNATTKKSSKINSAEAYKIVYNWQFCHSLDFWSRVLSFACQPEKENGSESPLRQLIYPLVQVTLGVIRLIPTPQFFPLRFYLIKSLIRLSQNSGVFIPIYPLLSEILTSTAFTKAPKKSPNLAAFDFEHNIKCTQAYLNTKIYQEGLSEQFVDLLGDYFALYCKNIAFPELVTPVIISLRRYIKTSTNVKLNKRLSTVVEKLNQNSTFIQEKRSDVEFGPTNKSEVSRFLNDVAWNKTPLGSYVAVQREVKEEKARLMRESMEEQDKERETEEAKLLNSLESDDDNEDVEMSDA
The description is as above.

Experiment [3] addresses T1, Nog1-TAP (S. cerevisiae). The experiment is described as above. The source holds these as a separate data set.

Read-outs that look alike come from different tables or passages of the source. Results are given in words; binding and its absence hold for the method and conditions named. Binding seen in cells or lysates may run through a third protein. A yes stands for co-enrichment or nearness to the bait. Other partners may have been found.

Consider rpL21 (S. cerevisiae), for which the binding result with Nog1-TAP (S. cerevisiae) [1] and with Rsa4-TAP (S. cerevisiae) was “binds” throughout.

Take rpL40 (S. cerevisiae): the binding result with Arx1-TAP (S. cerevisiae) and with Rsa4-TAP (S. cerevisiae) was “binds” in each case.

Turning to rpL24 (from UniProt P04449), the binding entry (in experiment [2]; in the experiment with Arx1-TAP (S. cerevisiae); with Nog1-TAP (S. cerevisiae) [1]; with Nog2-TAP (S. cerevisiae); in the experiment with Rsa4-TAP (S. cerevisiae)) was “binds” throughout.

B1: Brx1 (protein, UniProt Q08235 1-291)
chain: MSSIYKALAGKSKDNKSEKKQGNVKQFMNKQRTLLISSRGVNYRHRHLIQDLSGLLPHSRKEPKLDTKKDLQQLNEIAELYNCNNVLFFEARKHQDLYLWLSKPPNGPTIKFYIQNLHTMDELNFTGNCLKGSRPVLSFDQRFESSPHYQLIKELLVHNFGVPPNARKSKPFIDHVMSFSIVDDKIWVRTYEISHSTKNKEEYEDGEEDISLVEIGPRFVMTVILILEGSFGGPKIYENKQYVSPNVVRAQIKQQAAEEAKSRAEAAVERKIKRRENVLAADPLSNDALFK
With B1, the binding entry in the experiment with Noc2-TAP (S. cerevisiae) and with Nog1-TAP (S. cerevisiae) [3] was “binds” each time.

B2: Ebp2 (protein, UniProt P36049 1-427)
chain: MAKGFKLKELLSHQKEIEKAEKLENDLKKKKSQELKKEEPTIVTASNLKKLEKKEKKADVKKEVAADTEEYQSQALSKKEKRKLKKELKKMQEQDATEAQKHMSGDEDESGDDREEEEEEEEEEEGRLDLEKLAKSDSESEDDSESENDSEEDEDVVAKEESEEKEEQEEEQDVPLSDVEFDSDADVVPHHKLTVNNTKAMKHALERVQLPWKKHSFQEHQSVTSETNTDEHIKDIYDDTERELAFYKQSLDAVLVARDELKRLKVPFKRPLDYFAEMVKSDEHMDKIKGKLIEEASDKKAREEARRQRQLKKFGKQVQNATLQKRQLEKRETLEKIKSLKNKRKHNEIDHSEFNVGVEEEVEGKRFDRGRPNGKRAAKNAKYGQGGMKRFKRKNDATSSADVSGFSSRKMKGKTNRPGKSRRARRF
For the molecule B2, the binding result in the experiment with Noc2-TAP (S. cerevisiae) is “binds”.

Values taken from article PMC3707915.
